These are yes or no findings as the source states them, for the method shown. In cells and extracts the contact can be indirect. Some binding calls cover weakened binding; strength is not graded here.
Target: C-terminally strep-tagged mouse mGluR2 (mouse) (UniProt Q14BI2)
Experiment: co-IP; lysates of HEK-293 cells co-transfected with HA-tagged NL1 forms and strep-tagged mGluR2, 48 h after transfection; PBS with 1% NP40; IP with anti-streptag (or HA, or mouse IgG as control), protein A/G magnetic beads; blot with anti-HA and anti-streptag

Amino acid sequences for entries named in this document (tags omitted). Residues count along the entry.
UniProt Q14BI2, residues 19-872: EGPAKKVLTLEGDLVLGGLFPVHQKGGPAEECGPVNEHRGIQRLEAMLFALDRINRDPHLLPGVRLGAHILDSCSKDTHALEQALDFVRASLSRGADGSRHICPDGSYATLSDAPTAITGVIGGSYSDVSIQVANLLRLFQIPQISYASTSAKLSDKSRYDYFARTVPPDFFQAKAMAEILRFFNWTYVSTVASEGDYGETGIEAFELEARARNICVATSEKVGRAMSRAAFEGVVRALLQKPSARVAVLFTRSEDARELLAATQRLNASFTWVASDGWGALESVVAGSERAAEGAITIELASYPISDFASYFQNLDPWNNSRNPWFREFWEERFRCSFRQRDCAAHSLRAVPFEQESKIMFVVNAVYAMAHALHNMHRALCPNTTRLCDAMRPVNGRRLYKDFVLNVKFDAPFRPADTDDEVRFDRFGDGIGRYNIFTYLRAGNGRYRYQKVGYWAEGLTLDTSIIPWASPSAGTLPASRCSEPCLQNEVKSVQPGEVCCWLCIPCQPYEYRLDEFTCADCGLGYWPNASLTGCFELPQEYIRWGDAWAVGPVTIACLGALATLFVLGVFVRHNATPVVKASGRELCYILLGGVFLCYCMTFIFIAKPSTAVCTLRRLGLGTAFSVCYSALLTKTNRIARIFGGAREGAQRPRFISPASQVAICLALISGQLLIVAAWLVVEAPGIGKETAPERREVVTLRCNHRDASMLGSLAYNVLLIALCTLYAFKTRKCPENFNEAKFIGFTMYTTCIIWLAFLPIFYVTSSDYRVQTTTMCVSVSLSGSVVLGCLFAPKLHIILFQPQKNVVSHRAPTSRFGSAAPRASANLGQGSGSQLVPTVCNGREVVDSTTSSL
UniProt Q99K10, residues 46-843: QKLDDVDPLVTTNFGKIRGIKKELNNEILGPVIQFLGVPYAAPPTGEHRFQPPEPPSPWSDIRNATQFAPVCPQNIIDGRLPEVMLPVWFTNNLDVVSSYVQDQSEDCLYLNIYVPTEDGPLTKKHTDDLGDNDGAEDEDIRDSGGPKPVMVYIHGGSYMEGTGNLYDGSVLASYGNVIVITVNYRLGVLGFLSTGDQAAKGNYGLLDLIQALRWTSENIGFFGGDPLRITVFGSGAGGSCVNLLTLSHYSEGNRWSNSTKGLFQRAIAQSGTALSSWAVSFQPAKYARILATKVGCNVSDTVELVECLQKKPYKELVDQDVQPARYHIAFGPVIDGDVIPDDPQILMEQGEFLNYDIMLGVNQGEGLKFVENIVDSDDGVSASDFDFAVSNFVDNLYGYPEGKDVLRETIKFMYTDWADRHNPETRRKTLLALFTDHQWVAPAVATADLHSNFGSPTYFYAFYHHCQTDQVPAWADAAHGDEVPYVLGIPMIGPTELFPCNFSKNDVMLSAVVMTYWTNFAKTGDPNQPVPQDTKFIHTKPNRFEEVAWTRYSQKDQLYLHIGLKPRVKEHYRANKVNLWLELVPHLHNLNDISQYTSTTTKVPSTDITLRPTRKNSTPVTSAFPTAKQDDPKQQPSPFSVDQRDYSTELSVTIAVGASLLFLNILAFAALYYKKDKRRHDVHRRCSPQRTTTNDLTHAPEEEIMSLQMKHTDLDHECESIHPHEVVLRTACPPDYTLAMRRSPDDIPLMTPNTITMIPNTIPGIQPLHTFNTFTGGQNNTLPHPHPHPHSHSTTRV

binding: binds
Substance: N-terminally HA-tagged mouse NL1-AB (from UniProt Q99K10 46-843)

Reference: PMC5413576
